Screen size: about 370,000 compounds; about 100 (0.027%) were called active. The shares of active, inactive and inconclusive entries below differ from those in the screen. Calls follow the shape of the dose curve; as a rule, active = well fitted inhibition curve with a large enough effect in the polarisation, with a control signal flat; inconclusive = small, poorly fitted or top-dose-only effect, or effect the other way, or a change in a side signal; inactive = no such curve, though single readings can be large or run the other way; the % refers to the polarisation. Potencies of inconclusive entries are doubtful fits and often do not repeat. “Side channel” marks fits to a control or component signal instead of the main read-out.
These compounds were tested against Transcriptional regulator ERG (Homo sapiens) (UniProt P11308) (assay: qHTS for Small Molecule Inhibitors of the ERG Ets/DNA interaction). Settings: fluorescence polarization, His-ERG Ets domain / labelled DNA; series mostly up to 76.9 µM.
Summary of the method: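 His-tagged ERG Ets domain (1 uM in the protein solution; 300mM KCl, 50mM Tris-HCl, 1mM EDTA, 1mM DTT, pH 7.5) received compound, then a probe mix of 5 nM fluorescein-DNA and 100nM Texas-615-DNA. Fluorescence polarization was read for both dyes.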
Potency is read from the fitted curve at half-maximal effect.

Sequences of proteins named here, by UniProt entry; tags and fusion partners are left off. A change or cut given only in a name is not applied to a line headed by its entry.
UniProt P11308: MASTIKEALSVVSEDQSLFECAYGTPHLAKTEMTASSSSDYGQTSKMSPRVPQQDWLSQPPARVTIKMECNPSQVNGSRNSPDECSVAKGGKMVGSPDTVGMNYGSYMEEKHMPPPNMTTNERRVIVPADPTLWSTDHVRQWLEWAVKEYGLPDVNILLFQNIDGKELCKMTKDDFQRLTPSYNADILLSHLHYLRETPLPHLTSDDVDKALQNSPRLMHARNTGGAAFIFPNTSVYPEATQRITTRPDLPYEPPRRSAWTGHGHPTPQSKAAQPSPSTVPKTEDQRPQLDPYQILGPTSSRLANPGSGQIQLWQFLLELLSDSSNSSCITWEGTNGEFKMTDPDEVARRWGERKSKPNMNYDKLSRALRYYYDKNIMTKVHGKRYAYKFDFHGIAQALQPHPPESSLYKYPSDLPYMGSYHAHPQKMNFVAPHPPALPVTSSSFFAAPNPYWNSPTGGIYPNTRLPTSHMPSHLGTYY

SMILES | Potency
COc1ccccc1N1CCN(C(=O)CSc2nc(C)c(Cc3ccccc3)c(=O)[nH]2)CC1 | inconclusive: 11.2 µM [inhibitor, partial curve, poor fit]
Cc1ccccc1NC(=O)c1cc(N)ccc1N1CCCCC1 | inactive
COc1ccc(-c2nc(CCNC(=O)Cc3ccc(F)cc3)cs2)cc1 | inactive
CC(C)n1cnc2c(NCc3ccccc3)cc(N[C@H](C)CO)cc21 | inconclusive: 25.1 µM [inhibitor, partial curve, poor fit]
O=C(O)c1cc(Cl)ccc1-c1ccc(/C=C/c2cc(C(F)(F)F)[nH]c(=O)n2)o1 | inactive
Nc1cc(-c2nn[nH]n2)ccc1F | inconclusive: 31.6 µM [inhibitor, partial curve, poor fit]
COc1ccc(C(=S)N2CCN(c3ccccc3C)CC2)cc1OC | inconclusive: 50.1 µM [inhibitor, single point]
CC(C)(C)OC(=O)N1CCC(CC2CC(c3cccc(Br)c3)=NO2)(C(=O)NCC2CCCCC2)CC1 (configuration not stated) | inconclusive: 1.26 µM [inhibitor, partial curve, poor fit]
COc1cc(CNCCSc2nnnn2C)ccc1OCc1ccccc1 | inconclusive: 5.01 µM [quencher, side channel, partial curve, poor fit]
COc1cc2cc3c(N)c(C(=O)NCc4ccco4)sc3nc2cc1OC | inconclusive: 28.2 µM [quencher, side channel, partial curve, poor fit]
CCN1C(=O)/C(=C/c2ccc(N3CCCC3)cc2)NC1=S | inconclusive: 28.2 µM [fluorescent, side channel, partial curve, poor fit]
CC(C)(C)SC(=O)CC1NS(=O)(=O)OC2CCCCC12 (configuration not stated) | inconclusive: 11.2 µM [inhibitor, partial curve, poor fit]
COc1ccc(N2CCN(CC(=O)Nc3ccc(C)cc3Br)CC2)cc1 | inactive
O=C(Cc1ccc(-n2cccc2)cc1)N1CCc2ccccc21 | inconclusive: 50.1 µM [fluorescent, single point]
CCOC(=O)c1c(NC(=O)CN(C)C)sc(C(=O)N(CC)CC)c1C | inactive
Cc1cc(C)nc(N/N=C/c2ccco2)n1 | inconclusive: 14.1 µM [inhibitor, partial curve, poor fit]
COc1cccc(CC2(CO)CCN(S(=O)(=O)N(C)C)CC2)c1 | inconclusive: 28.2 µM [inhibitor, single point]
CN(CC(=O)N1CCN(Cc2ccccc2)CC1)S(=O)(=O)c1ccc(Br)cc1 | inactive
CCOc1ccc(NC(=O)Cc2c(C(=O)O)n(C)c3ccccc23)cc1 | inconclusive: 3.16 µM [inhibitor, partial curve, poor fit]
CC1CCN(C(=S)c2ccccc2O)CC1 | inconclusive: 28.2 µM [fluorescent, side channel, partial curve, poor fit]
CCCc1ccc(S(=O)(=O)Nc2ccc(C)c(NS(C)(=O)=O)c2)cc1 | inconclusive: 14.1 µM [quencher, side channel, partial curve, poor fit]

Quoted from the listing.
For Potency, Cc1cc(C)nc(N/N=C/c2ccco2)n1 has inconclusive: 14.1 µM [inhibitor, partial curve, poor fit]
For Potency, CCCc1ccc(S(=O)(=O)Nc2ccc(C)c(NS(C)(=O)=O)c2)cc1 has inconclusive: 14.1 µM [quencher, side channel, partial curve, poor fit]

(cont.)

SMILES | Potency
Cc1cc2nc(-c3ccc[nH]c3=O)n(Cc3ccccc3F)c2cc1C | inconclusive: 31.6 µM [inhibitor, partial curve, poor fit]
CCOCCCNCC(=O)Nc1ccc(S(=O)(=O)NC(C)CC)cc1 (configuration not stated) | inconclusive: 39.8 µM [inhibitor, partial curve, poor fit]
COc1cccc(Cn2cc(C(=O)c3ccccc3)c(=O)c3cc4c(cc32)OCO4)c1 | inconclusive: 3.55 µM [quencher, side channel, full curve, poor fit]
CCOc1ccccc1C1CC(=O)Nc2c1c(=O)n(C)c1ncnn21 (configuration not stated) | inconclusive: 4.47 µM [quencher, side channel, full curve, poor fit]
COc1ccccc1Nc1nc(-c2cccnc2)cs1 | inactive
CCc1cccc(CC)c1-n1c(-c2cccnc2)n[nH]c1=S | inconclusive: 7.08 µM [inhibitor, partial curve, poor fit]
CCCn1nc(NC(=O)C2CCCO2)c2cc3cccc(C)c3nc21 (configuration not stated) | inconclusive: 1 µM [quencher, side channel, full curve, poor fit]
CC(=O)Nc1ccc(NC(=O)CSC2=NS(=O)(=O)c3cc(Cl)ccc3N2)cc1 | inactive
Cc1sc2nc(C)n(/N=C/c3ccccc3O)c(=O)c2c1C | inactive
O=C(O)CN1C(=O)C(=O)N(Cc2ccc(C(F)(F)F)cc2)C1=O | inconclusive: 11.2 µM [inhibitor, single point]
Cc1ccc(OC(C)c2nnc(N)s2)cc1Cl (configuration not stated) | inactive
CCCCc1ccc(NC(=O)CC(C)C)cc1 | inactive
CCOc1ccc(/C=C2\SC(=S)N(C)C2=O)cc1OC | inconclusive: 3.55 µM [inhibitor, partial curve, poor fit]
COc1ccc(C(=O)Nc2ccnn2C2CCN(Cc3cn(C)nc3C)CC2)cc1 | inconclusive: 31.6 µM [inhibitor, single point]
C/C(=N\NC(=O)c1cc2ccccc2cc1O)c1cccs1 | inconclusive: 50.1 µM [inhibitor, single point]
CC(C)C1NC(=S)N(Cc2ccccc2)C1=O (configuration not stated) | inconclusive: 0.708 µM [inhibitor, full curve, poor fit]
Cc1ccc(S(=O)(=O)N(CC(=O)NCc2cccnc2)c2ccc(F)cc2)cc1 | inconclusive: 1.58 µM [inhibitor, full curve, poor fit]
CCCc1cc(=O)n(-c2nc3ccccc3s2)[nH]1 | inactive
CCOC(=O)C1CCCN(C(=O)c2cccc(S(=O)(=O)N3CC(C)OC(C)C3)c2)C1 (configuration not stated) | inconclusive: 50.1 µM [inhibitor, single point]
CCOC(=O)N1CCN(CC(=O)N2c3ccccc3Sc3ccccc32)CC1 | inactive
Cc1ccc(O)c(-c2cc(C(=O)NCc3ccccc3)[nH]n2)c1 | inconclusive: 50.1 µM [inhibitor, partial curve, poor fit]

— PubChem BioAssay AID624246 (National Center for Advancing Translational Sciences (NCATS), 2012)
